For at least one compound, name, drawing or mass did not settle the structure.
Assays:
[1] = tested on: male IOPS Han Ico Wistar rats, septic shock by LPS Salmonella typhimurium; details: LPS 50 mg/kg
[2] = tested on: detached cells; details: Stewart M S, Free Radic Biol Med 1999; cited from earlier work
[3] = cited from earlier work
[4] = bolus 2000 μg (80 μg/kg) in sheep, contrary to same dose continuously; Wang 2009; cited from earlier work

## O=[Se](O)O [sodium selenite]
[1]; H 6h30
  creatinine / kidney function, in words: increase in creatinine
  glycemia, in words: very low
  pH, in words: lowered
  saturation in mixed central venous blood (ScvO2), in words: collapsed
[1]; H 6h30, compared to control rats
  lactate, in words: major increase
[2]
  concentration leading to cell destruction for detached cells: 10 µmol/L
[3]; 1000 μg Se (14 μg/kg) bolus over 30 min, then same dose continuously over 24 h for 15 days, Angstwurm 2007, not yet reproduced
  mortality: tendency towards a decrease in mortality
[3]; 4000 μg/day (55 μg/kg) administered continuously, Heyland 2007
  beneficial effect: did not have a beneficial effect
[4]
  effects of bolus administration: positive effects

Source: patent publication US11224633B2, “Kit for treating sepsis and/or any systemic (SIRS) or damaging cellular hyperinflammation” (priority 2015, dated 2022)
